Experimental data as given in patent US8058442B2 (Technion Research and Development Foundation Ltd., priority 2002, dated 2011).

Test: general procedure: Fmoc solid-phase peptide synthesis; Rink amide resin; PyBOP/NMM; DCC/HOBt when necessary
Settings: conjugation step

Substance | conjugation yield [%]
[Cys^8(HQ)]-Substance P | 75
[D-Cys^6(HQ-Pr)]GnRH | 70
[L-Cys^5(HQ-Pr)]GnRH | 78
